Assay results from patent publication US20030162221A1.
These are yes or no findings as the source states them, for the method shown. In cells and extracts the contact can be indirect. Some results given as binding are weak or reduced against the parent protein; the word gives no strength. Tags and fused reporters may be left off the sequences shown.

Tests used:
[1] = molecular target: T1, Rfc1 (Saccharomyces cerevisiae) (UniProt P38630); assay: anti-FLAG co-IP, LC-MS/MS; pair by Table 2
T1 sequence (looked up): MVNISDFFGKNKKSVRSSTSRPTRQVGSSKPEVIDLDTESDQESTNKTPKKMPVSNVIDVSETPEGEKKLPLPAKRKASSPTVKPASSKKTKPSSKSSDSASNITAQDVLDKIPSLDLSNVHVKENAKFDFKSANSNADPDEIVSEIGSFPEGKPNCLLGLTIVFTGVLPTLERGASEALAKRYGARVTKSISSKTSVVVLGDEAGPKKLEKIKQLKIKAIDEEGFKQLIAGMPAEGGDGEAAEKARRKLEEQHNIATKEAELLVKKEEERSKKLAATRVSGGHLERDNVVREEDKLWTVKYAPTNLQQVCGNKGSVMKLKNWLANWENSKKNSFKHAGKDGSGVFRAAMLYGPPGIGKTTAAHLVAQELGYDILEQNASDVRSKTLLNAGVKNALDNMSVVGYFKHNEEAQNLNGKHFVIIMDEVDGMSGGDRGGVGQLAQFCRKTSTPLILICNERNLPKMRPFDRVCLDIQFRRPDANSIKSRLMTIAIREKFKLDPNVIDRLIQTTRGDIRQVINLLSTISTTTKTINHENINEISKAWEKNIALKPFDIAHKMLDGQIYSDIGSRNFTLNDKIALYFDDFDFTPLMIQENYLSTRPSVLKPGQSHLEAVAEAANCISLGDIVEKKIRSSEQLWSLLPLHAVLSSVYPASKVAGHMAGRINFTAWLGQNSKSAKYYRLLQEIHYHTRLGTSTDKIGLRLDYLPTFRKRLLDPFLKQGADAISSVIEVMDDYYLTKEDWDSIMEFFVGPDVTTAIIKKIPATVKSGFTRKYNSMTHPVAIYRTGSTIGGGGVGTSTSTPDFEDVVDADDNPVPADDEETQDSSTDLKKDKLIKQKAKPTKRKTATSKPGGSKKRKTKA

[2] = molecular target: T2, Rfc2 (Saccharomyces cerevisiae) (UniProt P40348); assay: anti-FLAG co-IP, LC-MS/MS
T2 sequence (looked up): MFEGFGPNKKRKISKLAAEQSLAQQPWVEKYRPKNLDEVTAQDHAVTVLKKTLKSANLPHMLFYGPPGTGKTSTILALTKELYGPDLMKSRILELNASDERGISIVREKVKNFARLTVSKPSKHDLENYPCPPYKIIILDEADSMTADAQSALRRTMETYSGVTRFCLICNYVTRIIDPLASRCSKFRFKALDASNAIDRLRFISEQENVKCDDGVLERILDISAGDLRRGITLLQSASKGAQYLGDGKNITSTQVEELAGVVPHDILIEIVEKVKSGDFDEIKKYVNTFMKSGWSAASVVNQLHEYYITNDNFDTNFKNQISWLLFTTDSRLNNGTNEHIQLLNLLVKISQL

[3] = molecular target: T1, Rfc1 (Saccharomyces cerevisiae); assay: anti-FLAG co-IP, LC-MS/MS
[4] = molecular target: T3, Mre11 (Saccharomyces cerevisiae) (UniProt P32829); assay: anti-FLAG co-IP, LC-MS/MS; pair by Table 2
T3 sequence (looked up): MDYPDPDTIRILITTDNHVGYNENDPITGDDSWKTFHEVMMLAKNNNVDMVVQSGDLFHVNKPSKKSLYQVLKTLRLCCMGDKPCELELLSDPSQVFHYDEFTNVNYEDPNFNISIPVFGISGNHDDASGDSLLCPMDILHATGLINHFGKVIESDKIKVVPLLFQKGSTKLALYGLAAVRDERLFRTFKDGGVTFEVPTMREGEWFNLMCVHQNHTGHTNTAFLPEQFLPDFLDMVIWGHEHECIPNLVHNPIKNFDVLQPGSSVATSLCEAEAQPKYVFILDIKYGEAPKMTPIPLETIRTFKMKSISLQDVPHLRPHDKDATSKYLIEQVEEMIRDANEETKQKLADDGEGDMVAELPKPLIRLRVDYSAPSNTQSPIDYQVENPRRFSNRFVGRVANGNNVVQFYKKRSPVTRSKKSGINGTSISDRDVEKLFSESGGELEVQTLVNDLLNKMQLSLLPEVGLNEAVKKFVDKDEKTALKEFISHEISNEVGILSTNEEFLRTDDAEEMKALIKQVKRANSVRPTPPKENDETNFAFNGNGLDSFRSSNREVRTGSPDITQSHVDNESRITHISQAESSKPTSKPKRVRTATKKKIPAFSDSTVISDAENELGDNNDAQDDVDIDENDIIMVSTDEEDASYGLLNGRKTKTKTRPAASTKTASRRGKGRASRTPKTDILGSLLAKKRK

[5] = molecular target: T3, Mre11 (Saccharomyces cerevisiae); assay: anti-FLAG co-IP, LC-MS/MS
[6] = molecular target: T4, Rad50 (Saccharomyces cerevisiae) (UniProt P12753); assay: anti-FLAG co-IP, LC-MS/MS
T4 sequence (looked up): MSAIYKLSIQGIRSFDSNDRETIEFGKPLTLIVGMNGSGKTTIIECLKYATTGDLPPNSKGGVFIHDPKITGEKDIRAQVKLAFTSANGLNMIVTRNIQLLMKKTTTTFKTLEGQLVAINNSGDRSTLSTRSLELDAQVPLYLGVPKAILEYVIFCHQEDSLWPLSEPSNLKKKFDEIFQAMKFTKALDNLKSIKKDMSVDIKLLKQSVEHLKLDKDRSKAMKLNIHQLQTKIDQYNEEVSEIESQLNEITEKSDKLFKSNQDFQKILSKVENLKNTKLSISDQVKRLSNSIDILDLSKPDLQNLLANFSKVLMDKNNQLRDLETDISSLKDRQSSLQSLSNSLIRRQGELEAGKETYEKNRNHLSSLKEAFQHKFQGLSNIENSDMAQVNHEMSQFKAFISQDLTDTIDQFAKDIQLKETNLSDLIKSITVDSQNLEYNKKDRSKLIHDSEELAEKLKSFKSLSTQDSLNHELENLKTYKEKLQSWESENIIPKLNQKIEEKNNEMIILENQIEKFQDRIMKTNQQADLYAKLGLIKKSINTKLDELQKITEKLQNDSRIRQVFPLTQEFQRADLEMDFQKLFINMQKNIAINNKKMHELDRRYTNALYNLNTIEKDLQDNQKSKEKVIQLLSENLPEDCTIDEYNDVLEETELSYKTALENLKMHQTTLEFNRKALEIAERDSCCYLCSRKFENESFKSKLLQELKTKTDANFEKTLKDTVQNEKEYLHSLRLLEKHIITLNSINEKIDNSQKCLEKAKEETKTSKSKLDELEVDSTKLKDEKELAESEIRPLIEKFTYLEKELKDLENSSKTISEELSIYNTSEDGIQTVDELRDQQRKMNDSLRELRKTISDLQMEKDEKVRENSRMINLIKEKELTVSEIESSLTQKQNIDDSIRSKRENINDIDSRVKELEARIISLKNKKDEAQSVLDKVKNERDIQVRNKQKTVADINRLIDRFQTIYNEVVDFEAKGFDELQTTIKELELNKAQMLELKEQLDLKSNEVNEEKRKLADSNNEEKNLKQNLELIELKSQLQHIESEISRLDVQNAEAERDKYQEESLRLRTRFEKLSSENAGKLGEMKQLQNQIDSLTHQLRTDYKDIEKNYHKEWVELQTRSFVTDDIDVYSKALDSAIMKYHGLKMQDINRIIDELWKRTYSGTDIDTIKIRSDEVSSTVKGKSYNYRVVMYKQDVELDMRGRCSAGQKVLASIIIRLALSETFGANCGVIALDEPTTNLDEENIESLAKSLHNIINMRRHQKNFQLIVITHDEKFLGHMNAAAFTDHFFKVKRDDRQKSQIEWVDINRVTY

Measured: binding

B1: Rfc4 (protein, Saccharomyces cerevisiae, UniProt P40339 1-323, looked up)
chain: MSKTLSLQLPWVEKYRPQVLSDIVGNKETIDRLQQIAKDGNMPHMIISGMPGIGKTTSVHCLAHELLGRSYADGVLELNASDDRGIDVVRNQIKHFAQKKLHLPPGKHKIVILDEADSMTAGAQQALRRTMELYSNSTRFAFACNQSNKIIEPLQSRCAILRYSKLSDEDVLKRLLQIIKLEDVKYTNDGLEAIIFTAEGDMRQAINNLQSTVAGHGLVNADNVFKIVDSPHPLIVKKMLLASNLEDSIQILRTDLWKKGYSSIDIVTTSFRVTKNLAQVKESVRLEMIKEIGLTHMRILEGVGTYLQLASMLAKIHKLNNKA
binds: [1] | [2] | [3]

B2: Xrs2 (protein, Saccharomyces cerevisiae, UniProt P33301 1-854, looked up)
chain: MWVVRYQNTLEDGSISFISCCLQAFKTYSIGRSSKNPLIIKNDKSISRQHITFKWEINNSSDLKHSSLCLVNKGKLTSLNKKFMKVGETFTINASDVLKSTIIELGTTPIRIEFEWINEVWNIPPHLTQFRTMLSEYGISTEISINDIPANLMISDYPKSEDNSIRELYALVSTIPMKKSRFLMELCNTLLPTSKTNLKFDEMWNDMISNPEYNVFDFDPNILLSKFMRLNNIRVLTTIKSEPRLSSLLRTFNINLFAFDNIDSLYKYVDSLEASTEYLILTTTDKKENGKILCTIKTMLTSIIDGTLSAVINMKGASSRTLDNGKFDQISEGMSTILKTSRAPEVEASPVVSKKRKLNRRRVLPLDSLDFFAGGLSTKTLSENRSLTDAKRLNCGAESKTVISSPNIAEADEKHAPFLQNALKPTEDIGKKSGHSSPGAIIVSSPNLGTVNTSEDSLDKSLQSHKLPQPSLPEVAGIGSQTISSNSADYETAAVNSMDDAEVTKNFRVNHHQNIEQPSKNIRKLSNYSREISSPLQENCKSPVKELSIKEKSGTPHAFVEAIQETKNREVKRVKSTIVELKDEELSEEAINQLKNLAIVEPSNNLLRKSFDSEGNKTSRTTEKWENSLMEPEWHKRKNFKTFVKVRPKSKAHKEEGKNNTQSSDFIRNAAFLITRNYVPLKKYSKKDTTTKWGTEENEDMFALTEMERFGSNTFMSDNINSNTIQKRSQALNRFTNEDSSNEGEEDSFSFSRCSGTAASVQPLKNKIFITDEDDLGDIDDKSDRLNHRENNRNLFVVKEMNLRPNLSEECSKQSRHSRSATSRSRGSFGASNNGDGDDDDDDGPKFTFKRRKG
binds: [4] | [5] | [6]
